For at least one entry, the source does not settle the construct or the ends of the probe. At least one verdict was read from the data and is not stated in words by the source. Where a protein sequence is shown, tags need not be part of it.
Tests used:
[1] = target: T1, pRN1 primase (functional primase) (Sulfolobus islandicus (plasmid pRN1)) (UniProt Q54324); test: NMR (1H-15N HSQC); settings: ATP + dGTP, 313 K; HBD titrations: 25 mM sodium phosphate pH 7.0, 75 mM NaCl, 10 mM MgCl2, 298 K, 0.1 mM HBD, HBD:DNA 1:1.1; solid-state NMR on sedimented complex at 278-309 K; recombinant protein; residues 40-370; single-stranded DNA
T1 sequence (looked up): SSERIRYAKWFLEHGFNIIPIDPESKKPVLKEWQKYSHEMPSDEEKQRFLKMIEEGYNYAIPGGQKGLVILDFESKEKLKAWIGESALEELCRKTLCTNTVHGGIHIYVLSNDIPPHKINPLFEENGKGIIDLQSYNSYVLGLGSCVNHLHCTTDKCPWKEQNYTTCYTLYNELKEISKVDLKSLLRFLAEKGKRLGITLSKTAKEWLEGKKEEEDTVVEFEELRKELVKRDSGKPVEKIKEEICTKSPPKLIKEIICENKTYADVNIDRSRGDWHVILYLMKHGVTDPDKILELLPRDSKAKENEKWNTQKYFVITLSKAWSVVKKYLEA

[2] = target: T2, pRN1 primase helix-bundle domain (HBD) (Sulfolobus islandicus (plasmid pRN1)) (UniProt Q54324); test: NMR (1H-15N HSQC); settings: HBD titrations: 25 mM sodium phosphate pH 7.0, 75 mM NaCl, 10 mM MgCl2, 298 K, 0.1 mM HBD, HBD:DNA 1:1.1, solid-state NMR on sedimented complex at 278-309 K, recombinant protein, residues 256-370, single-stranded DNA
T2 sequence (looked up): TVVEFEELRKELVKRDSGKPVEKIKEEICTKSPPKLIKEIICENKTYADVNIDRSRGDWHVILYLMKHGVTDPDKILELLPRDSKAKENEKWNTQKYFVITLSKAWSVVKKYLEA

Measured: binding result

CTGTGCTCA [DNACT (GTG-motif template)]
binds: [1] | [2]; 2 ATP, 10 mM Mg2+, 298 K | [2]; ATP + GTP, 10 mM Mg2+, 298 K | [2]; ATP + GppCH2p (GTPC), 10 mM Mg2+, 298 K | [2]; ATP + GppNHp (GTPN), 10 mM Mg2+, 298 K | [2]; ATPC + dGTPC
